# Source: PubChem BioAssay AID2052 (NMMLSC, 2009)
# Some of the results follow. Some salts or complexes appear as unconnected parts, following the source record.
# Assay: murine CD8 T cell vesicle adhesion modulation – mouse 2C CD8+ T cells, flow cytometry, primary screen (AID 2052);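 note: binding gate set so that unloaded-vesicle control wells show 10% double positive cells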
# Conditions: 2C CD8+ T cell-vesicle binding, measured here: CD8+ vesicle-bound cell fraction, at 7 µM, stronger effect = lower value
# Method in brief: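 Material: 2C TCR transgenic mouse naive CD8+ T cells, MACS-purified. Also added: QL9-charged Drosophila Ld/ICAM-1/B7-1 vesicles. Timing: binding 1.5 h at 37 °C. Measured by: high-throughput flow cytometry with anti-B7-1 and anti-CD8 staining. Read-out: percent CD8+ FL2 mean versus row control. Controls: Unloaded micro-vesicles (low), QL9 vesicles with 0.7% DMSO (high).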
row,SMILES,double positive events
1,CN(C)C(=O)OCCc1n(C)cc[n+]1C,38.3%
2,CC(C)=N/N=C(\N)N[N+](=O)[O-],49.1%
3,CN(C)C(=O)c1c([N+](=O)[O-])cc([N+](=O)[O-])cc1[N+](=O)[O-],12.7%
4,CC1CCN(C(=O)Oc2c(Cl)cc(Cl)c3cccnc23)CC1,60.1%
5,C[N+]1=C2C=CC=CC=C2SC12C([N+](=O)[O-])=CC([N+](=O)[O-])=C[C-]2[N+](=O)[O-] (centres undefined),8.3%
6,COc1ccccc1OP(C)(=O)Nc1ccccc1Br (centres undefined),44.6%
7,Nc1ccc([As](=O)(O)c2ccc(N)cc2)cc1,11.5%
8,CC(C)(C)c1ccc(OP(C)(=O)O)cc1,27.4%
9,CP(=O)(Nc1ccc(Cl)cc1)Oc1ccc(F)cc1 (centres undefined),22.2%
10,CCN(/C(=N/P(=O)(N1CCOCC1)N1CCOCC1)N1CCOCC1)c1ccc(OC)cc1,54.8%
11,O=C(OCCCN1CCCC1)C(O)(c1ccccc1)C1CCCCC1 (centres undefined),12.9%
12,CC(=O)N1C2C3N(C(C)=O)C1C1N(C(C)=O)C(C(N1C(C)=O)N3C(C)=O)N2C(C)=O,39.7%
13,O=[N+]([O-])c1cccc2n[nH]nc12,50.3%
14,COc1ccccc1OP(C)(=O)Nc1c(C)n(C)n(-c2ccccc2)c1=O (centres undefined),23.3%
15,CCc1ccc(OP(C)(=O)Nc2cccnc2)cc1 (centres undefined),26.8%
16,O=[N+]([O-])c1cc([N+](=O)[O-])c(CCNc2ccccc2)c([N+](=O)[O-])c1,33.8%
17,CCc1nc2c(n1)c1c(non1O)c1c2no[n+]1[O-],37.7%
18,CP(=O)(Oc1ccccc1)N1CCOC1=O (centres undefined),49.6%
19,Cc1ccc(NP(=O)(Oc2ccccc2)Oc2ccccc2)nc1,23.5%
20,COc1ccc(OP(C)(=O)Nc2ccc(Br)cc2)cc1 (centres undefined),48%
21,COc1ccc(C2=NCC(CBr)S2)cc1 (centres undefined),50.9%
22,CCN(CC)CC(O)COC(=O)C(O)(c1ccccc1)C1CCCCC1 (centres undefined),30.8%
23,O=[N+]([O-])c1cccc(NC2=NCC(CBr)S2)c1 (centres undefined),27.8%

row,SMILES,double positive events
1,O=C(O)CNc1ccc([As](=O)(O)O)cc1,22.6%
2,CC(C)(C)C(=O)NC(Sc1ccncn1)C(Cl)(Cl)Cl (centres undefined),34.1%
3,O=[N+]([O-])c1ncn(CCn2ncnc2[N+](=O)[O-])n1,39%
4,O=C(Nc1cc([As](=O)(O)O)ccc1O)c1ccccc1,57.7%
5,CCOC(=O)c1ccc(NP(C)(=O)Oc2ccc(Cl)cc2)cc1 (centres undefined),51.9%
6,CP(=O)(OC12CC3CC(CC(C3)C1)C2)OC12CC3CC(CC(C3)C1)C2,22.8%
7,Nc1ccc2c(ccc3cccnc32)n1.O=[N+]([O-])c1cc([N+](=O)[O-])c(O)c([N+](=O)[O-])c1,56.5%
8,CCN(N=Nc1nonc1N)c1nonc1N,53.3%
9,CP(=O)(Nc1ccc(Cl)cc1Cl)Oc1ccccc1 (centres undefined),36.5%
10,CP(=O)(OCCOc1ccccc1)OCCOc1ccccc1,31.9%
11,Nc1cccc2ccc([As](=O)(O)O)cc12,14.6%
12,Cc1nc2ccc3ccccc3c2o1.O=[N+]([O-])c1cc([N+](=O)[O-])c(O)c([N+](=O)[O-])c1,55.2%
13,O=[N+]([O-])c1cc([N+](=O)[O-])c(CCN2CCOCC2)c([N+](=O)[O-])c1,27%
14,COc1ccccc1OP(C)(=O)Nc1ccc(C)c(C)c1 (centres undefined),36.2%
15,CN(C(=O)Cc1ccc(Cl)c(Cl)c1)[C@H]1CCCC[C@@H]1N1CCCC1,40.4%
16,Cc1ccc(NP(=O)(Oc2ccccc2F)Oc2ccccc2F)nc1,54.9%
17,Cc1cc(SC(NC(=O)c2ccc(F)cc2)C(Cl)(Cl)Cl)ncn1 (centres undefined),34.9%
18,CCOP(=O)(Nc1ccccc1)OCC,56.8%
19,COc1ccc(OP(C)(=O)Nc2ccccc2Br)cc1 (centres undefined),4.1%
20,CC(=O)Nc1ccc([As](=O)(O)O)cc1,26.8%
21,O=C(O)c1ccccc1[As](=O)(O)O,21.7%
22,O=P(Nc1nc2ccc(Cl)cc2s1)(c1ccccc1)c1ccccc1,27.5%
23,Cc1cc(C)cc(OP(C)(=O)Nc2cccc(C(F)(F)F)c2)c1 (centres undefined),47.6%

row,SMILES,double positive events
1,COc1ccccc1OP(C)(=O)Nc1ccc(C)cc1C (centres undefined),9.8%
2,CP(=O)(Nc1ccccn1)Oc1ccccc1 (centres undefined),41.3%
3,CCc1ccc(OP(C)(=O)O)cc1,32.6%
4,Nc1cc(N)c2nonc2c1[N+](=O)[O-],57.5%
5,Cc1c(NP(C)(=O)Oc2ccc(C(C)C)cc2)c(=O)n(-c2ccccc2)n1C (centres undefined),42.7%
6,O=[N+]([O-])c1cc([N+](=O)[O-])c(Nc2ccccn2)c([N+](=O)[O-])c1,15.8%
7,CC(C)CC(=O)NC(Sc1ccc(Cl)cc1)C(Cl)(Cl)Cl (centres undefined),18.7%
8,O=C(NC(Sc1ccncn1)C(Cl)(Cl)Cl)c1ccccc1 (centres undefined),5.3%
9,Cc1c2non([O-])c-2c(C)[n+](=O)[n+]1[O-],49.4%
10,Oc1ccccc1CNc1ccccn1,14.7%
11,Cc1ccc(OP(=O)(Nc2nccs2)Oc2ccc(C)cc2)cc1,38.6%
12,COc1ccccc1OP(=O)(Nc1ccc(C)cn1)Oc1ccccc1OC,40%
13,COc1ccc(OP(C)(=O)Nc2ccccn2)cc1 (centres undefined),13.3%
14,CN1CCCC(OC(=O)C(c2ccccc2)c2ccccc2)C1 (centres undefined),45.4%
15,CN(C)CCOC(=O)C(O)(c1ccccc1)C1CCCC1 (centres undefined),29.2%
16,Clc1ccc(Cl)c(NC2=NCC(CBr)S2)c1 (centres undefined),44.1%
17,NC(=O)c1cc([N+](=O)[O-])cc([N+](=O)[O-])c1N,6.8%
18,Cc1ccc(N/C(=N/P(=O)(N2CCOCC2)N2CCOCC2)N2CCOCC2)cc1,23.7%
19,CN(C(=O)Cc1ccc(Cl)c(Cl)c1)[C@H]1CCCC[C@H]1N1CCCC1,23.5%
20,COc1ccccc1OP(C)(=O)Nc1ccc(Br)cc1 (centres undefined),40.7%
21,CC(=O)Nc1ccc(Oc2c([N+](=O)[O-])cc([N+](=O)[O-])cc2[N+](=O)[O-])cc1,16%
22,CC(=O)Nc1ccc([As](=O)(O)O)c(O)c1,19.5%
23,COc1ccc2c(c1O)-c1c(O)c(OC)cc3c1[C@H](C2)[N+](C)(C)CC3.O=[N+]([O-])c1cc([N+](=O)[O-])c([O-])c([N+](=O)[O-])c1[O-],49%

row,SMILES,double positive events
1,O=C(OC1CN2CCC1CC2)c1ccc([N+](=O)[O-])cc1 (centres undefined),33.9%
2,CC(=O)c1ccc(N2CC2c2ccncc2)cc1 (centres undefined),31.1%
3,C[C@H]1OP(=O)(Oc2ccccc2)C[C@@H]2O[C@@H]21 (some centres undefined),21%
4,C[C@@H]1C=CCP(=O)(Oc2ccccc2)O1 (some centres undefined),60.5%
5,O=C(OCCN1CCN(CCOCc2ccccc2)CC1)C(O)(c1ccccc1)c1ccccc1,12%
6,Cc1ccccc1CN(C)C(=O)COC(=O)C(O)(c1ccccc1)c1ccccc1,29.1%
7,CP(=O)(Nc1ccccc1F)Oc1ccccc1 (centres undefined),43%
8,CC(C)c1ccc(OP(C)(=O)Nc2ccc(SC(F)(F)F)cc2)cc1 (centres undefined),41.1%
9,CC(C)(C)C(=O)NC(Sc1ccccc1)C(Cl)(Cl)Cl (centres undefined),2.7%
10,CCOc1ccc(C2=NCC(CBr)S2)cc1 (centres undefined),24.1%
11,O=P1(Nc2nc3ccc(Cl)cc3s2)COc2ccccc2O1 (centres undefined),9.3%
12,CP(=O)(Nc1ccccc1)Oc1ccc(F)cc1 (centres undefined),12%
13,CCCCCOc1ccc(NP(C)(=O)Oc2ccc(Cl)cc2Cl)cc1 (centres undefined),48.7%
14,O=[N+]([O-])c1cc([N+](=O)[O-])c(OC2CCCCC2O)c([N+](=O)[O-])c1 (centres undefined),64.5%
15,CN(C)C(=O)Oc1noc2ccccc12,41.7%
16,CC(NC(=O)COC(=O)C(O)(c1ccccc1)c1ccccc1)c1ccccc1 (centres undefined),28.2%
17,Cc1ccccc1OP(=O)(Nc1ccccn1)Oc1ccccc1C,28.6%
18,CC(=O)NC(SC(=S)N(CC(C)C)CC(C)C)C(Cl)(Cl)Cl (centres undefined),61.7%
19,Cc1ccc(OP(=O)(Nc2ccccn2)Oc2ccc(C)cc2)cc1,52.7%
20,COC(=O)c1cc2c(s1)N=C(c1ccccc1)N(C)P2(=O)N1CCOCC1 (centres undefined),59%
21,CCC(=O)N1C2C3N(C(=O)CC)C1C1N(C(=O)CC)C(C(N1C(=O)CC)N3C(=O)CC)N2C(=O)CC,54.4%
22,CCN(CC)CCCOC(=O)C(O)(c1ccccc1)C1CCCCC1 (centres undefined),15.4%
23,O=C(OC1CN2CCC1CC2)c1ccccc1 (centres undefined),8.9%

row,SMILES,double positive events
1,CCOC(=O)c1ccc(NP(C)(=O)Oc2ccc(F)cc2)cc1 (centres undefined),64.1%
2,COc1ccc(OP(C)(=O)Nc2ccc(SC(F)(F)F)cc2)cc1 (centres undefined),31.8%
3,O=C(NC1CCS(=O)(=O)C1)NP(=S)(Oc1ccccc1)Oc1ccccc1 (centres undefined),50%
4,CCNC(=S)/N=C(\N)N[N+](=O)[O-],5.6%
5,Cc1ccc(NP(=O)(Oc2cccc(C)c2)Oc2cccc(C)c2)nc1,14.1%
6,CCOC(=O)NC(Sc1ccccc1)C(Cl)(Cl)Cl (centres undefined),12.5%
7,c1ccc(-c2nn[nH]n2)c(-c2nn[nH]n2)c1,37.5%
8,C(Cc1nn[nH]n1)Cc1nn[nH]n1,46%
9,Nc1ccc([As](=O)(O)c2ccc([N+](=O)[O-])cc2)cc1,13.8%
10,O=C(OC1CN2CCC1CC2)c1cccc(Cl)c1 (centres undefined),51.7%
11,CC(=O)NC(SC(=S)N(C)C)C(Cl)(Cl)Cl (centres undefined),46.4%
12,O=[N+]([O-])c1ccc(OP2(=O)COCCO2)cc1 (centres undefined),46.7%
13,O=[N+]([O-])c1ncn(CCn2cnc([N+](=O)[O-])n2)n1,39.6%
14,O=[N+]([O-])c1ccc(O)c(/C=N/Nc2ccc([N+](=O)[O-])cc2[N+](=O)[O-])c1,55.8%
15,O=[N+]([O-])c1cc([N+](=O)[O-])c(NCC2CCS(=O)(=O)C2)c([N+](=O)[O-])c1 (centres undefined),25.1%
16,O=[As](O)(c1ccccc1)c1ccc(O)cc1,50.8%
17,C[C@H]1OP(=O)(Oc2ccccc2)[C@H](O)[C@H](O)[C@H]1N=[N+]=[N-] (some centres undefined),35%
18,O=P(Nc1nc2ccccc2s1)(c1ccccc1)c1ccccc1,55.5%
19,CN(C)CCOC(=O)C(O)(c1ccccc1)C1CCCCC1 (centres undefined),18.1%
20,COc1ccc(NP(C)(=O)Oc2ccccc2OC)cc1 (centres undefined),52.1%
21,COc1ccc(OP(C)(=O)Nc2cccc(Br)c2)cc1 (centres undefined),15.5%
22,CN(C)C1(CNC(=O)c2ccc(Cl)c(S(N)(=O)=O)c2)CCCCC1,16.3%
